The structures appear in SMILES notation. Several values for one entry are separate records, joined by “and”; a condition that tells them apart may be missing. Identical values can stand only once. The list shows a part of the results. This data set is noisy: repeats of one test often differ as much as different tests do.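 HEK293T cells were given each compound shortly before transfection with a reporter in which red mCherry is followed by the SARS-CoV-2 frameshift element and then GFP in the −1 frame, so GFP appears only after frameshifting.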

This assay relates to HEK293T. The experiment in a line: percent viability (nuclei count) relative to control; higher = more viable cells. Particulars: 10 µM; 24 h.
For `CCC(C)(C)c1ccc(CC(C)CN2C[C@@H](C)O[C@@H](C)C2)cc1` (some centres undefined) [amorolfine], the percent viability is 240% and 275%.

In the case of `CO[C@H]1/C=C/O[C@@]2(C)Oc3c(C)c(O)c4c(O)c(c(/C=N/N5CCN(C)CC5)c(O)c4c3C2=O)NC(=O)/C(C)=C\C=C\[C@H](C)[C@H](O)[C@@H](C)[C@@H](O)[C@@H](C)[C@H](OC(C)=O)[C@@H]1C` [Rifadin], the percent viability is 189%.

Take `C[C@H](CCC(=O)NCCS(=O)(=O)O)[C@H]1CC[C@H]2[C@@H]3[C@@H](O)C[C@@H]4C[C@H](O)CC[C@]4(C)[C@H]3CC[C@]12C` [Tauroursodeoxycholic acid]: the percent viability was determined as 209%.

`CC1CC(=O)NN=C1c1cc(-n2ccnc2)cs1` (centres undefined) [motapizone]: the percent viability stood at 118%.

The record behind these values is the supplement of paper PMC8256030.
